± gives the standard deviation. Only a part is listed here, and it is no random draw. Many entries were measured with a wide error.

In this test the test system is MIWI (PIWIL1) piRISC loaded with Kctd7 piRNA (30 nt). Briefly: pre-steady-state target cleavage rate (min^-1); MIWI and MILI are mouse PIWI proteins and EfPiwi is from a freshwater sponge; tags in brackets are library labels; higher = faster piRNA-guided slicing of the target. To be noted: guide: Kctd7 piRNA 5'p-UGUUAAUCUCUCAGAGAAGGUGACAGUGAU; auxiliary factor: 500 nM mouse GTSF1. An outline of the steps:
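Using HEPES–potassium acetate buffer at 33 °C, 1 nM active affinity-purified piRISC with a single synthetic guide was mixed with 0.1 nM transcribed, DNA-blocked target RNA library for 0–8 or 0–960 min, with or without 500 nM GTSF1 partner protein. Uncleaved targets were sequenced and normalised to depth and to weakly complementary targets, and three trials were pooled with k3 capped at 0.0001 min^-1. A burst-and-steady-state fit gave the pre-steady-state cleavage rate.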
With UACACUGUCACCUUCUCACAGAGAUAUUGA, the “pre-steady-state target cleavage rate” value was determined as 0.00268 ± 0.0063.

For UAGUGACAGUGCUUCUCUGAGAGUUUUACA, the “pre-steady-state target cleavage rate” value worked out at 0.000382 ± 0.017.

With UAGACUGUCACCUUGACUGAGAGAUUAUGA, the “pre-steady-state target cleavage rate” value was 0.00153 ± 0.0053.

On to UAGUGACAGUCCUUCUCUCUGAGAUUAUGA, for which the “pre-steady-state target cleavage rate” value came to 0.000671 ± 0.01.

Take UAGUGAGUCACCUUCUCUGAGCAGAUUAACA: the “pre-steady-state target cleavage rate” value amounted to 0.00233 ± 0.0082.

With UAGUGACAGUGGUUCUCUGAGCAGAUUAACA, the “pre-steady-state target cleavage rate” value worked out at 0.000144 ± 0.017.

Consider UAGUGACUCACCUUCUCAGAGAGAUAAACA, for which the “pre-steady-state target cleavage rate” value was 0.027 ± 0.0057.

Take UAGUGACAGUCCUUCUCAGAGAGAUAAACA: the “pre-steady-state target cleavage rate” value turned out to be 0.00194 ± 0.0046.

Consider UAGUCAGUCACCUUCUCUGAGAGAUUAACA, for which the “pre-steady-state target cleavage rate” value was determined as 0.722 ± 0.034.

For UAGUGACAGUGGAAGACUGAGUCUUUAACA, the “pre-steady-state target cleavage rate” value was found to be 0.000358 ± 0.019.

On to UUCACUGUCACCUUCUCUGAGAGAAAAUGA, for which the “pre-steady-state target cleavage rate” value came to 0.0429 ± 0.015.

For “UACACUGUCACCUUCUCUGAGAGAUUAACC [g2:g28:cont:t1C]”, the “pre-steady-state target cleavage rate” value turned out to be 0.391 ± 0.034.

For UAGUGUGUCACCUUGACUGAGAGAUAUUGA, the “pre-steady-state target cleavage rate” value stood at 0.000424 ± 0.019.

As to UAGUGACAGUGCUUCUCUGAGAGAUAUAACA, the “pre-steady-state target cleavage rate” value was found to be 0.00174 ± 0.0042.

Take UAGUGACUCACCUUCAGAGAGAGAUUUUGA: the “pre-steady-state target cleavage rate” value turned out to be 0.000652 ± 0.014.

Consider UAGUGACAGUGCUUCUCUGACGAGAUUAACA, for which the “pre-steady-state target cleavage rate” value was 0.000174 ± 0.016.

For the sequence UAGUGUGUCACCUUCUCUCUCAGAUUAACA, the “pre-steady-state target cleavage rate” value is 0.00132 ± 0.0072.

As for UACACUGUCACCUUCUCUCUGAGAUUUUGA, the “pre-steady-state target cleavage rate” value is 0.00486 ± 0.0055.

Turning to UAGACUGUCACCUUCUCUGACAGAUAUUGA, the “pre-steady-state target cleavage rate” value is 0.00031 ± 0.013.

Regarding “UAGACUGUCACCUUCUCUGAGAGAUUAACG [g2:g27:cont:t1G]”, the “pre-steady-state target cleavage rate” value worked out at 0.674 ± 0.034.

In the case of UAGUGACAGUGGAAGAGAGAGAGAUUUUCA, the “pre-steady-state target cleavage rate” value was 0.00025 ± 0.025.

Consider UAGACUGUCACCUUCUGUGAGAGAUAUUGA, for which the “pre-steady-state target cleavage rate” value was 0.0117 ± 0.004.

With UAGUCUGUCACCUUCUGACAGAGAUUAAGA, the “pre-steady-state target cleavage rate” value stood at 0.00049 ± 0.016.

On to UAGACUGUCACGUUCUCUGAGUGAUUAACA, for which the “pre-steady-state target cleavage rate” value was found to be 0.00628 ± 0.0015.

Take UAGUGUGUCACCUUCUGAGAGAGAUUAUGA: the “pre-steady-state target cleavage rate” value amounted to 0.00244 ± 0.0056.

UUCACUGUACCUUCUCUGAGAGAUUAACA: the “pre-steady-state target cleavage rate” value was 0.712 ± 0.036.

With UAGUCUGUCACGUUCUCUGAGAGAUUUUGA, the “pre-steady-state target cleavage rate” value came to 0.00232 ± 0.0034.

With UAGUGACAGUGCUUCUCUGAGUCAUUAACA, the “pre-steady-state target cleavage rate” value stood at 0.000186 ± 0.018.

For the sequence AAGACUGUCACCUUCUCUGAGAGAUUAACA, the “pre-steady-state target cleavage rate” value was found to be 0.786 ± 0.036.

Turning to UACACUGUCACCUUCUCUGACUCAUUAAGA, the “pre-steady-state target cleavage rate” value was 0.00166 ± 0.0069.

In the case of UAGUGACAGUCCUUCUCUGAGAGUUAACA, the “pre-steady-state target cleavage rate” value came to 0.000643 ± 0.0085.

For the sequence UAGACUGUGACCUUCUCUGAGAGAUAUUGA, the “pre-steady-state target cleavage rate” value was determined as 0.00299 ± 0.0034.

Regarding UAGUGACAGUCCUUGUCUCAGAGAUUAACA, the “pre-steady-state target cleavage rate” value was found to be 0.000539 ± 0.014.

For the sequence UAGUGACACACCUUCAGUGAGAGAUUUUGA, the “pre-steady-state target cleavage rate” value was determined as 0.00251 ± 0.0069.

With UACACUGUCACCUUCUCUCUCAGAUUUUGA, the “pre-steady-state target cleavage rate” value was determined as 0.00166 ± 0.0088.

Regarding UAGUGACAGUGCUUCUGUGAGUGAUUAACA, the “pre-steady-state target cleavage rate” value amounted to 0.00258 ± 0.0033.

Turning to UAGUGACAGUCCUUCUCUGAGAGAAUAAGA, the “pre-steady-state target cleavage rate” value worked out at 0.000484 ± 0.011.

As to UAGUGACAGACCUUCUCUGAGUCAUUAAGA, the “pre-steady-state target cleavage rate” value was 0.00073 ± 0.012.

With UAGUGACAGUCCAUCUCUGAGUGAUUAACA, the “pre-steady-state target cleavage rate” value was determined as 0.000996 ± 0.0068.

For the sequence UAGUGACACACCUUCAGAGAGAGAUUAUGA, the “pre-steady-state target cleavage rate” value came to 0.000968 ± 0.017.

UACACUGUCACCUUCUCUGAGUCAUUAAGA: the “pre-steady-state target cleavage rate” value worked out at 0.00199 ± 0.0045.

Consider UAGUGACAGUCCUUCUUCUGAGAGAUUAACA, for which the “pre-steady-state target cleavage rate” value amounted to 0.00178 ± 0.005.

For the sequence UAGACUGUCACCAAGUCUGAGAGAUAUUGA, the “pre-steady-state target cleavage rate” value was determined as 0.000349 ± 0.0097.

On to “UAGUGACACACCUUCUCUGAGAGAAAUUGA [g7:g22:cont:t1A]”, for which the “pre-steady-state target cleavage rate” value was found to be 0.00186 ± 0.0067.

UAGUGACAGACCUACUCUGAGAGAUUUUGA: the “pre-steady-state target cleavage rate” value is 0.000173 ± 0.038.

In the case of UAGUGACAGACGUUCUCUCAGAGAUUAACA, the “pre-steady-state target cleavage rate” value turned out to be 0.000737 ± 0.014.

On to UACACUGUCACCUUCUCUGACUGAUUUUGA, for which the “pre-steady-state target cleavage rate” value was determined as 0.00172 ± 0.0065.

Take UAGUGACACACCUUCUCUGAGACUUUAAGA: the “pre-steady-state target cleavage rate” value is 0.000295 ± 0.017.

As for UAGUGACAGUGGUUCUCGAGAGAUUAACA, the “pre-steady-state target cleavage rate” value came out at 0.000943 ± 0.01.

Consider UAGAGUGUCACCUACUCUGAGAGAUUAACA, for which the “pre-steady-state target cleavage rate” value is 0.765 ± 0.042.

For UAGACUGUCACCUUCUCUGACUCAUUAACA, the “pre-steady-state target cleavage rate” value worked out at 0.00133 ± 0.0037.

Take UAGUGACAGACCUUCACUGAGAGAUAAACA: the “pre-steady-state target cleavage rate” value stood at 0.0224 ± 0.007.

Regarding UAGUGUGUCACCUUCUCUGAGACAUAUUGA, the “pre-steady-state target cleavage rate” value is 0.00162 ± 0.0057.

As for UAGUGACAGUGGAACUCUGAGUGAUUAAGA, the “pre-steady-state target cleavage rate” value amounted to 0.000732 ± 0.018.

For UAGUGACAGACCUUCUCUCAGAGAUAAACA, the “pre-steady-state target cleavage rate” value came out at 0.00249 ± 0.0048.

UAGUGACAGUCGUUCUCUGAGUGAUUAACA: the “pre-steady-state target cleavage rate” value was found to be 0.000224 ± 0.021.

For UAGUGACAGUCCUUCUCUCGAGAGAUUAACA, the “pre-steady-state target cleavage rate” value worked out at 0.00103 ± 0.0091.

In the case of UAGACUGUACACCUUCUCUGAGAGAUUAACA, the “pre-steady-state target cleavage rate” value amounted to 0.779 ± 0.055.

In the case of UAGUGACACACCUUGUCUGAGAGAAUAACA, the “pre-steady-state target cleavage rate” value turned out to be 0.00451 ± 0.0047.

For the sequence UAGUGACACACCUUCUCUCUGAGAUUUUGA, the “pre-steady-state target cleavage rate” value stood at 0.000764 ± 0.0084.

Turning to UAGUGACAGUGGAAGAGAGACAGAUUAACA, the “pre-steady-state target cleavage rate” value turned out to be 0.000347 ± 0.017.

On to UAGUGACAGACCUUCUCAGUGAGAUUAACA, for which the “pre-steady-state target cleavage rate” value amounted to 0.000544 ± 0.018.

On to UAGUGACAGACCAUCUCUGAGAGAUUUUGA, for which the “pre-steady-state target cleavage rate” value came to 0.000496 ± 0.011.

Consider UUCACUGUCUCCUUCUCUGAGAGAUUAACA, for which the “pre-steady-state target cleavage rate” value came to 0.685 ± 0.036.

Consider UUCACUGUCACCUCUCUCUGAGAGAUUAACA, for which the “pre-steady-state target cleavage rate” value worked out at 0.289 ± 0.022.

Regarding UAGUGACAGACCUUCUCUGAGACAAUAACA, the “pre-steady-state target cleavage rate” value was determined as 0.000848 ± 0.008.

With UAGUGACAGACCUUCUCUGACUCAUUAAGA, the “pre-steady-state target cleavage rate” value was 0.000416 ± 0.021.

Consider UAGUGACAGACCUACACUGAGAGAUUAACA, for which the “pre-steady-state target cleavage rate” value is 0.0013 ± 0.009.

Consider UAGUGAGUCACCUUCUCUGUCUGAUUAACA, for which the “pre-steady-state target cleavage rate” value was found to be 0.00234 ± 0.0051.

Take UAGUGUGUGACCUUCUCUGAGAGAUUUUGA: the “pre-steady-state target cleavage rate” value is 0.00158 ± 0.006.

For UAGUGACAGUCCUUGUCUGAGAGAAUAACA, the “pre-steady-state target cleavage rate” value was determined as 0.00106 ± 0.009.

On to UAGUGACAGUGCUUCUCAUGAGAGAUUAACA, for which the “pre-steady-state target cleavage rate” value was 0.000634 ± 0.011.

In the case of UAGUGACAGACCUUCUCUGACUCAUUAUGA, the “pre-steady-state target cleavage rate” value was found to be 0.000405 ± 0.016.

UAGACUGUGUCCUUCUCUGAGAGAUAUUGA: the “pre-steady-state target cleavage rate” value was 0.000795 ± 0.0094.

Turning to UAGUCUGUCACCUUCUCUGAGACAUUAUGA, the “pre-steady-state target cleavage rate” value is 0.00346 ± 0.004.

As for UAGUGUGUCACCUUCUGACAGAGAUUUUGA, the “pre-steady-state target cleavage rate” value stood at 0.00114 ± 0.011.

Take UUCACUGUCACCUUCUCUGACUGAUUUUGA: the “pre-steady-state target cleavage rate” value is 0.00183 ± 0.0043.

Turning to “UAGUGACAGUGGAACUCUGAGAGAUUAACU [g2:g16:cont:t1U]”, the “pre-steady-state target cleavage rate” value came to 0.000111 ± 0.048.

With UUCACUGUCUGGUUCUCUGAGAGAUUUUGA, the “pre-steady-state target cleavage rate” value is 0.000926 ± 0.0095.

Turning to UACACUGUCACCUUCUCUGAGUCAUAUUGA, the “pre-steady-state target cleavage rate” value came to 0.00157 ± 0.0054.

In the case of UAGUGACAGUGGAACUCUGAGAGUUUUACA, the “pre-steady-state target cleavage rate” value was 0.000399 ± 0.023.

Regarding UAGUGACAGUGGAAGAGUGAGCGAUUAACA, the “pre-steady-state target cleavage rate” value is 0.000349 ± 0.01.

Regarding UAGUGACACACCUUCUGAGAGAGAUUAAGA, the “pre-steady-state target cleavage rate” value was found to be 0.0042 ± 0.0048.

UAGUGUCACACCUUCUCUGAGAGAUAUUGA: the “pre-steady-state target cleavage rate” value came out at 0.00616 ± 0.0033.

Turning to UUGACUGUCACGUUCUCUGAGAGAUUAACA, the “pre-steady-state target cleavage rate” value amounted to 0.711 ± 0.037.

Consider “UAGACUGUCACCUUCUCUGAGUCUAAUUGA [g10:g27:cont:t1A]”, for which the “pre-steady-state target cleavage rate” value was found to be 0.000439 ± 0.0087.

In the case of UAGUGACAGUGCUUCUCUGAGAGAUUACA, the “pre-steady-state target cleavage rate” value was found to be 0.000168 ± 0.014.

As for UAGUGACAGACGUUCUCUGACAGAUUAACA, the “pre-steady-state target cleavage rate” value stood at 0.000115 ± 0.058.

As to “UAGUGACUCACCUUCUCUGAGAGUAAUUGA [g8:g23:cont:t1A]”, the “pre-steady-state target cleavage rate” value turned out to be 0.00172 ± 0.0051.

As for AUCACAGUCACCAUCUCUGAGAGAUUAACA, the “pre-steady-state target cleavage rate” value came out at 0.771 ± 0.036.

These data come from the supplement of paper PMC10338343.
